Data as given in PubChem BioAssay AID743121 (NCATS, 2013)
This is one part, drawn at random, of about 26,000 reagents tested. 167 of them (0.63%) were called active. 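Calls are per gene from RSA p-values that are not deposited; an individual active-marked siRNA can sensitise only weakly.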 The numbers tell different reagents against one gene apart.

Purpose: 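Partners whose loss is lethal together with topoisomerase I blockade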 (primary screen)
System: MDA-MB-231 cells, a human breast cancer line
Knock-down reagent: single siRNA against human genes, 20 nM siRNA (0.8 pmol per well)
Time to read-out: 120 h (drug added 48 h after transfection, read 72 h later)
Treatment: camptothecin 20 nM (about EC30) for 72 h; vehicle 0.1% DMSO in parallel plates
Measured: 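CellTiter-Glo ATP signal, scaled to control siRNA as percent viability; sensitisation given as log2 of untreated divided by camptothecin-treated viability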
Scale: log2 vehicle/camptothecin viability: higher = stronger sensitisation to camptothecin; viability with camptothecin and viability without drug: higher = more viable cells
Rule for the call: 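Active genes have an RSA gene-level p-value below 0.001, computed from the ratios of their separate siRNAs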

| gene | reagent | log2 vehicle/camptothecin viability | viability with camptothecin (% of control) | viability without drug (% of control) | call |
| --- | --- | --- | --- | --- | --- |
| TGFBR3 | 1 | -0.525 | 114 | 79.4 | inactive |
| TGFBR3 | 2 | 0.35 | 58.2 | 74.2 | inactive |
| TGFBR3 | 3 | -0.142 | 56.8 | 51.5 | inactive |
| TGFBR3 | 4 | 0.414 | 63.9 | 85.2 | inactive |
| SLC6A15 | 1 | 0.174 | 104 | 117 | inactive |
| SLC6A15 | 2 | 0.284 | 60.5 | 73.7 | inactive |
| SLC6A15 | 3 | 0.0534 | 80.3 | 83.3 | inactive |
| CDC23 | 1 | 0.255 | 38.3 | 45.8 | inactive |
| CDC23 | 2 | -0.141 | 62.8 | 57 | inactive |
| CDC23 | 3 | 0.408 | 35.1 | 46.6 | inactive |
| CDC23 | 4 | 1.19 | 23.5 | 53.5 | inactive |
| SIRT4 | 1 | 0.263 | 51.2 | 61.5 | inactive |
| SIRT4 | 2 | -0.741 | 35.7 | 21.4 | inactive |
| SIRT4 | 3 | 0.241 | 86.3 | 102 | inactive |
| SIRT4 | 4 | -0.00838 | 73.5 | 73.1 | inactive |
| PEX3 | 1 | -0.155 | 103 | 92.7 | inactive |
| PEX3 | 2 | -0.236 | 111 | 94.1 | inactive |
| PEX3 | 3 | -0.516 | 74.4 | 52 | inactive |
| PEX3 | 4 | -0.454 | 93.1 | 68 | inactive |
| MLYCD | 1 | -0.41 | 96.2 | 72.4 | inactive |
| MLYCD | 2 | 0.508 | 71.6 | 102 | inactive |
| MLYCD | 3 | 0.0619 | 44.1 | 46 | inactive |
| MLYCD | 4 | -0.16 | 120 | 107 | inactive |
| FGFR1 | 1 | -0.2 | 88.8 | 77.3 | inactive |
| FGFR1 | 2 | -0.263 | 65.9 | 54.9 | inactive |
| FGFR1 | 3 | -0.664 | 80.2 | 50.6 | inactive |
| FGFR1 | 4 | -0.51 | 111 | 78.2 | inactive |
| CYP20A1 | 1 | 0.0706 | 36.7 | 38.5 | inactive |
| CYP20A1 | 2 | 0.0473 | 89 | 92 | inactive |
| CYP20A1 | 3 | 0.9 | 5.84 | 10.9 | inactive |
| CYP20A1 | 4 | 0.0176 | 71.6 | 72.5 | inactive |
| RAMP1 | 1 | -0.586 | 47.2 | 31.4 | inactive |
| RAMP1 | 2 | 0.13 | 82.4 | 90.2 | inactive |
| RAMP1 | 3 | 0.15 | 53.8 | 59.7 | inactive |
| RAMP1 | 4 | -0.0564 | 55.7 | 53.5 | inactive |
| CPA5 | 1 | -0.0128 | 29.5 | 29.3 | inactive |
| CPA5 | 2 | 0.0751 | 81.7 | 86.1 | inactive |
| CPA5 | 3 | 0.0121 | 99.3 | 100 | inactive |
| PIK3R1 | 1 | -0.49 | 52.2 | 37.2 | inactive |
| PIK3R1 | 2 | -0.0922 | 105 | 98.5 | inactive |
| PIK3R1 | 3 | -0.382 | 73.5 | 56.4 | inactive |
| PIK3R1 | 4 | 2.27 | 7.16 | 34.4 | inactive |
| OR6B2 | 1 | -0.595 | 44.3 | 29.3 | inactive |
| OR6B2 | 2 | -0.386 | 110 | 84.2 | inactive |
| OR6B2 | 3 | 0.283 | 44.5 | 54.2 | inactive |
| OR6B2 | 4 | -0.0249 | 16.6 | 16.3 | inactive |

Copied from the listing, 2 entries:
| gene | reagent | log2 vehicle/camptothecin viability | viability with camptothecin (% of control) | viability without drug (% of control) | call |
| --- | --- | --- | --- | --- | --- |
| PEX3 | 2 | -0.236 | 111 | 94.1 | inactive |
| PEX3 | 3 | -0.516 | 74.4 | 52 | inactive |
